# In PubChem BioAssay (Tox21):
# Where “and” joins values, the source holds several entries; their conditions need not be identical. Equal entries are not always repeated. Most of the hits are listed elsewhere, so they are rarer here than in the full data. Results filed as inconclusive are left out. Calls of active or inactive are those of the source. Unless noted, calls come from the whole dose curve; as a rule, active = well fitted cell-killing curve with a large enough effect in the repeat runs; inconclusive = weak or mixed curves, or effect the other way; inactive = flat fitted curve, though single readings scatter.
# What was measured:
# [1] = Nuclear factor erythroid 2-related factor 2/antioxidant responsive element (Nrf2/ARE) small molecule agonists: qHTS cell viability counter screen in human keratinocytes (AID 1919968); settings: KeratinoSens HaCaT ARE cells viability, CellTiter-Fluor, 24 h; note: nearly all actives have a fitted effect of over 55% in size
# Excerpt: U.S. Tox21 Program National Center for Advancing Translational Sciences [NCATS] Division of Preclinical Innovation [DPI] U.S. Environmental Protection Agency [EPA] National Institutes of Environmental Health Sciences [NIEHS] National Toxicology Program [NTP] U.S. Food and Drug Administration [FDA] Tox21 Assay Overview: Oxidative stress has been implicated in the pathogenesis of a variety of diseases ranging from cancer to neurodegeneration. The antioxidant response element (ARE) signaling pathway plays an important role in the amelioration of oxidative stress. The KeratinoSens (Givaudan, Switzerland) is an in vitro test method which quantifies luciferase induction as a measure of activation of Keap1-Nrf2-antioxidationt/electrophile response element (ARE) dependant pathway in HaCaT human keratinocytes stably transfected with a selectable plasmid. The KeratinoSens assay is a cell-based assay with a reporter cell line to detect potential skin sensitizers by their ability to induce the Nrf2/ARE-response. The activation of the report gene under culture conditions can be detected by ONE-Glo Luciferase Assay System (Promega, Madison, WI). This cell line has been used to screen the Tox21 10K compound library to identify agonists that induce oxidative stress. The cytotoxicity of the Tox21 compound library against the KS-ARE cell line was tested in parallel by measuring the cell viability using CellTiter- Fluor assay system (Promega, Madison, WI) in the same wells.
# Tox21 Assay Protocol Summary: HaCaT derived cell line KeratinoSens were dispensed at 1,500 cells/5uL/well in 1536-well white wall/solid bottom plates using a Multidrop Combi (ThermoFisher Scientific, Waltham, MA) dispenser. After the assay plates were incubated at 37 C/5% CO2 for 5 h, 23 nL of compounds dissolved in DMSO, positive controls or DMSO only was transferred to the assay plate by a pintool workstation (Kalypsys, San Diego, CA). The plates were incubated at 37 C/5% CO2 for 23 h, followed by addition of 1uL/well of CellTiter-Fluor reagent into the assay plates using a Flying Reagent Dispenser (Aurora Discovery, San Diego, CA) for cell viability readout that measures cytotoxicity. After 1 h incubation at 37 C/5% CO2 the fluorescence intensity was measured using a ViewLux (PerkinElmer, Shelton, CT) plate reader.
# [2] = Nuclear factor erythroid 2-related factor 2/antioxidant responsive element (Nrf2/ARE) small molecule agonists: luciferase reporter gene qHTS assay in human keratinocytes (AID 1919969; calls by dose curve; note: nearly all actives have a fitted effect of over 35% in size); settings: KeratinoSens HaCaT ARE-luciferase, luminescence, 24 h
# % is set by controls: 0 for no effect and ±100 for the full control effect.
smiles,measurement,setting,value
CN1[C@@H]2CC(OC(=O)[C@H](CO)c3ccccc3)C[C@H]1[C@@H]1O[C@@H]12 (stereo partly drawn),"activity change, negative = cytotoxicity",[1]; at 42.5 µM (top of the series),inactive: 0.555%
same,"activity change, negative = cytotoxicity",[1]; at 92.4 µM (top of the series),inactive: 0.446% and inactive: 0.386% and inactive: -0.911%
C[N+]1(C)CCC(OC(=O)C(O)(c2ccccc2)C2CCCC2)C1 (stereo not drawn),"activity change, negative = cytotoxicity",[1]; at 42.5 µM (top of the series),inactive: 0.482%
CC(C)(C(=O)O)c1ccc(C(O)CCCN2CCC(C(O)(c3ccccc3)c3ccccc3)CC2)cc1 (stereo not drawn),"activity change, negative = cytotoxicity",[1]; at 42.5 µM (top of the series),inactive: -7.66%
same,"activity, positive = activation",[2]; at 42.5 µM (top of the series),inactive: 3.7%
CCCCc1oc2ccccc2c1C(=O)c1cc(I)c(OCCN(CC)CC)c(I)c1,"activity, positive = activation",[2]; at 42.5 µM (top of the series),inactive: -36.4%
O=C(O)COCCN1CCN(C(c2ccccc2)c2ccc(Cl)cc2)CC1 (stereo not drawn),"activity change, negative = cytotoxicity",[1]; at 42.5 µM (top of the series),inactive: 2.21%
same,"activity change, negative = cytotoxicity",[1]; at 92.4 µM (top of the series),inactive: -4.82%
same,"activity, positive = activation",[2]; at 42.5 µM (top of the series),inactive: 0.152%
same,"activity, positive = activation",[2]; at 92.4 µM (top of the series),inactive: -3.13%
NCCCC(O)(P(=O)(O)O)P(=O)(O)O,"activity change, negative = cytotoxicity",[1]; at 42.5 µM (top of the series),inactive: 4.83%
Cc1cnc(C(=O)NCCc2ccc(S(=O)(=O)NC(=O)NC3CCCCC3)cc2)cn1,"activity, positive = activation",[2]; at 42.5 µM (top of the series),inactive: 0.0158%
same,"activity, positive = activation",[2]; at 92.4 µM (top of the series),inactive: 20.7%
